PubChem BioAssay AID1259288 | Sanger Institute | 2017
In all, the deposit lists 160 reagents; shown is a part drawn at random. In the full data, 7 (4.4%) got an active call. 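Active calls arise only from BYL719 or trametinib; no cetuximab synergy went beyond 0.10; drug doses chosen to have mild effect alone.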 A number with no mark means an inactive call. Reagents against one gene are numbered here. Not all columns of the deposit are shown. Not stated in the record: the amount of reagent, the time to read-out.

- Aim: 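Verify that silencing candidate genes makes colorectal cancer cells more drug sensitive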 (follow-up of hits with single siRNAs)
- Cell system: HT29 human colorectal cancer cells
- Reagent: single siRNA against human genes
- Conditions: anchor drugs BYL719 (1 µM), cetuximab (5 µg/ml) or trametinib (10 nM), or DMSO vehicle; each drug dosed to cause only modest loss of viability on its own
- Measurement: 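Mean viability across replicates relative to non-targeting pool 2, and a synergy score setting the joint siRNA-plus-drug effect against each agent's effect alone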
- Reading the numbers: synergy score with BYL719 and synergy score with trametinib and synergy score with cetuximab: higher = stronger combined killing than expected from each alone
- Call rule: 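a gene counts as active if its synergy score is above 0.10 for one or more anchor drugs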

gene	reagent	synergy score with BYL719	synergy score with trametinib	synergy score with cetuximab
CDK6	1	0.0769	0.0355	-0.123
CDK6	2	-0.0453	0.0259	-0.305
CDK6	3	-0.171	0.0165	-0.0677
CDK6	4	-0.071	0.0522	0
AK2	1	-0.172	-0.111	-0.243
AK2	2	-0.173	0.023	-0.155
AK2	3	-0.249	-0.00361	-0.0599
AK2	4	-0.0883 (active)	0.143	-0.116

Next part; the last 2 above are carried over.
gene	reagent	synergy score with BYL719	synergy score with trametinib	synergy score with cetuximab
AK2	3	-0.249	-0.00361	-0.0599
AK2	4	-0.0883 (active)	0.143	-0.116
BMPR2	1	-0.144	-0.0997	-0.0728
BMPR2	2	-0.0802	-0.0511	-0.19
BMPR2	3	-0.204	-0.111	-0.0727
BMPR2	4	-0.108	-0.0717	0
MAP3K8	1	0.0511	-0.0923	-0.0641
MAP3K8	2	0.0505	0.0619	-0.115
MAP3K8	3	-0.117	-0.0865	-0.124
MAP3K8	4	-0.13	-0.0714	-0.138
BRAF	1	0.0825	-0.00229	-0.0247
BRAF	2	0.0752	0.0401	-0.0611
BRAF	3	-0.0198	0.0385	-0.035
BRAF	4	0.0134	-0.0512	-0.0657
CSNK2A2	1	-0.148	-0.00572	0
CSNK2A2	2	-0.183	-0.15	-0.125
CSNK2A2	3	-0.118	-0.0921	-0.302
CSNK2A2	4	-0.125	0.0256	-0.162
